According to publication PMC12607013:
These are yes or no findings as the source states them, for the method shown. Binding seen in cells or lysates may run through a third protein. Some entries that bind do so weakly or less than the wild type. Sequences can lack the tags named with a protein.

Molecular target: T1, MBP-OTUD4 (maltose-binding protein-tagged OTUD4) (human) (UniProt Q01804)
T1 sequence: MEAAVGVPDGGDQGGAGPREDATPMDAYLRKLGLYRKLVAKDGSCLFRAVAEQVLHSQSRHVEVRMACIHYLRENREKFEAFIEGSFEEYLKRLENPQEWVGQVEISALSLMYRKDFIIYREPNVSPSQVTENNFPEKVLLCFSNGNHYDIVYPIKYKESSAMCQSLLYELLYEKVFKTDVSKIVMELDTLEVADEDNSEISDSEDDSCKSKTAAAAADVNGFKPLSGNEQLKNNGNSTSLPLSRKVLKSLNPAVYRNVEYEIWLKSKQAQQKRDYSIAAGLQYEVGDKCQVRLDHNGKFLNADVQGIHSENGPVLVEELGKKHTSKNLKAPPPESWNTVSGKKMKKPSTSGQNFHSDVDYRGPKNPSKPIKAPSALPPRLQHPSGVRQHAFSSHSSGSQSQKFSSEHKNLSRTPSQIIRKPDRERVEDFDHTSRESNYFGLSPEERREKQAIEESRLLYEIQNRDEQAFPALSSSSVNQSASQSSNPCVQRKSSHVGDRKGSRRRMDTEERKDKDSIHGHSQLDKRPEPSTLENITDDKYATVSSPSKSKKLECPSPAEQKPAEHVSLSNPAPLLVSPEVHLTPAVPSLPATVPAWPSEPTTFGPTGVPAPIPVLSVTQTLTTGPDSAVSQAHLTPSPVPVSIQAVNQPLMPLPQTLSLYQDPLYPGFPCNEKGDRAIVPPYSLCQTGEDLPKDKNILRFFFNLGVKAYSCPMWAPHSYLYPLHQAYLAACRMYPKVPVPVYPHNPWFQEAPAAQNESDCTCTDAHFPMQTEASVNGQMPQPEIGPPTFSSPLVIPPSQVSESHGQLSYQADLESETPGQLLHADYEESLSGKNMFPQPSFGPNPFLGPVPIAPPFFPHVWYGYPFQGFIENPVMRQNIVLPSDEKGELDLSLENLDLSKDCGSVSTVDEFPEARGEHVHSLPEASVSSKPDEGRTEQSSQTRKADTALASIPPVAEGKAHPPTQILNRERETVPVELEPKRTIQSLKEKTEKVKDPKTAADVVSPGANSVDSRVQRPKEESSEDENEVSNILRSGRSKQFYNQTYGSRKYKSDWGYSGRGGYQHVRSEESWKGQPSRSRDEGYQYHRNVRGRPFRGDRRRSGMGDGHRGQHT
Assay: pull-down; MBP-OTUD4 held on amylose resin (4 °C, 12 h, washed), then incubated with bacterial lysate containing FLAG-TAK1 at 4 °C for 2 h; Western blot; only the target purified

binding: binds
B1: FLAG-TAK1 (E. coli) (protein, UniProt O43318 1-606)
chain: MSTASAASSSSSSSAGEMIEAPSQVLNFEEIDYKEIEVEEVVGRGAFGVVCKAKWRAKDVAIKQIESESERKAFIVELRQLSRVNHPNIVKLYGACLNPVCLVMEYAEGGSLYNVLHGAEPLPYYTAAHAMSWCLQCSQGVAYLHSMQPKALIHRDLKPPNLLLVAGGTVLKICDFGTACDIQTHMTNNKGSAAWMAPEVFEGSNYSEKCDVFSWGIILWEVITRRKPFDEIGGPAFRIMWAVHNGTRPPLIKNLPKPIESLMTRCWSKDPSQRPSMEEIVKIMTHLMRYFPGADEPLQYPCQYSDEGQSNSATSTGSFMDIASTNTSNKSDTNMEQVPATNDTIKRLESKLLKNQAKQQSESGRLSLGASRGSSVESLPPTSEGKRMSADMSEIEARIAATTAYSKPKRGHRKTASFGNILDVPEIVISGNGQPRRRSIQDLTVTGTEPGQVSSRSSSPSVRMITTSGPTSEKPTRSHPWTPDDSTDTNGSDNSIPMAYLTLDHQLQPLAPCPNSKESMAVFEQHCKMAQEYMKVQTEIALLLQRKQELVAELDQDEKDQQNTSRLVQEHKKLLDENKSLSTYYQQCKKQLEVIRSQQQKRQGTS
